PubChem BioAssay AID1224830 | NIAID – 2016
Assay: 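Regulators of TLR4 signalling towards TNF-alpha in macrophage-like cells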 (primary screen). Cell system: human THP-1 monocytic leukaemia cells, TNF dual-luciferase reporter clone, PMA-differentiated to macrophage-like cells. Reagents: siRNA pool against human genes, 50 nM. Duration: LPS for 4 h, given about 3 days after siRNA transfection. Treatment: bacterial LPS (TLR4 ligand), 10 ng/ml. Read-out: 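Ratio of firefly to renilla light, scaled to the plate median and expressed as a robust z-score per replicate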. Reading the numbers: TNF reporter robust z-score: higher = stronger TNF reporter response to LPS. Active means: 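a well is active when its z-score exceeds 2.8 or falls below -1.5; control wells carry no call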.
Shown is an unselected part of about 18,000 reagents tested. Over the whole deposit, about 2,900 (16%) got an active call. 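Calls are made per well; low scores hint the gene aids the LPS response, high scores that it dampens it.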 Unmarked entries are inactive. Repeated entries: four replicate wells of each siRNA pool. No sequences are given here.

| TNF reporter robust z-score | target gene |
| --- | --- |
| 0.72 | ZNRD2 |
| -0.56 | ZNRD2 |
| 1.4 | ZNRD2 |
| -0.08 | ZNRD2 |
| -0.91 | GINM1 |
| -0.31 | GINM1 |
| 0.32 | GINM1 |
| 0.69 | GINM1 |
| 0.95 | RNF40 |
| -0.6 | RNF40 |
| -0.5 | RNF40 |
| -0.54 | RNF40 |
| -0.34 | CNRIP1 |
| 0.05 | CNRIP1 |
| -0.4 | CNRIP1 |
| -0.62 | CNRIP1 |
| 0.84 | NEMP1 |
| -0.28 | NEMP1 |
| -0.43 | NEMP1 |
| 0.87 | NEMP1 |
| 0.32 | TNNT1 |
| 0.87 | TNNT1 |
| 2.03 | TNNT1 |
| 1.2 | TNNT1 |
| -0.93 | APOO |
| -0.57 | APOO |
| -0.21 | APOO |
| -0.85 | APOO |
| 0.94 | CNN2 |
| -0.14 | CNN2 |
| 0.42 | CNN2 |
| -0.25 | CNN2 |
| -0.04 | DNAJC17 |
| -0.21 | DNAJC17 |
| 0.34 | DNAJC17 |
| 0.09 | DNAJC17 |
| -0.86 | SIN3A |
| -1.03 | SIN3A |
| -1.24 | SIN3A |
| -1.2 | SIN3A |
| -0.47 | DYNC1LI2 |
| 0.37 | DYNC1LI2 |
| -0.39 | DYNC1LI2 |
| 0.12 | DYNC1LI2 |
| 0.83 | EPOR |
| 0.39 | EPOR |
| 0.72 | EPOR |
| 1.06 | EPOR |
| 0.41 | TTLL9 |
| 0.04 | TTLL9 |
| -0.9 | TTLL9 |
| -0.47 | TTLL9 |
| 0.7 | ARSG |
| 2.26 | ARSG |
| 0.83 | ARSG |
| 1.36 | ARSG |
| -1.28 | SMYD4 |
| 0.13 | SMYD4 |
| 0.11 | SMYD4 |
| -0.76 | KCNE1 |
| -0.75 | KCNE1 |
| -0.36 | KCNE1 |
| -0.48 | KCNE1 |
| -0.92 | LRRC52 |
| -0.94 | LRRC52 |
| -0.69 | LRRC52 |
| -0.68 | LRRC52 |
| 0.96 | COG3 |
| 0.81 | COG3 |
| 1.83 | COG3 |
| 1.71 | COG3 |
| -0.54 | WFDC9 |
| -0.57 | WFDC9 |
| 0.02 | WFDC9 |
| -0.87 | WFDC9 |
| -0.29 | COMTD1 |
| -0.12 | COMTD1 |
| 0.61 | COMTD1 |
| 0.92 | COMTD1 |
| -0.1 | POLR2A |
| -0.21 | POLR2A |
| 0.4 | POLR2A |
| -0.72 | POLR2A |
| -0.71 | CCDC159 |
| -0.01 | CCDC159 |
| -0.21 | CCDC159 |
| 0.14 | CCDC159 |
| 0.58 | DAO |
| 1.37 | DAO |
| 0.38 | DAO |
| 1.75 | DAO |
| -0.89 | HCFC1 |
| -1.83 (active) | HCFC1 |
| -0.67 | HCFC1 |
| -0.11 | HCFC1 |
| -0.92 | ZSCAN9 |
| 1 | ZSCAN9 |
| 0.53 | ZSCAN9 |
| -1.1 | ZSCAN9 |
| 0.41 | GMPPA |
| 1.09 | GMPPA |
| 1.85 | GMPPA |
| 0.06 | GMPPA |
| -0.12 | KCTD6 |
| -0.07 | KCTD6 |
| 0.19 | KCTD6 |
| 1.36 | KCTD6 |
| 2.17 | TRABD |
| 0.92 | TRABD |
| 0.55 | TRABD |
| 0.04 | TRABD |

A run of entries taken from the entries so far, for reference:
| TNF reporter robust z-score | target gene |
| --- | --- |
| 0.42 | CNN2 |
| -0.25 | CNN2 |
| -0.04 | DNAJC17 |
| -0.21 | DNAJC17 |
| 0.34 | DNAJC17 |
| 0.09 | DNAJC17 |
| -0.86 | SIN3A |
| -1.03 | SIN3A |
| -1.24 | SIN3A |
| -1.2 | SIN3A |
| -0.47 | DYNC1LI2 |
| 0.37 | DYNC1LI2 |
| -0.39 | DYNC1LI2 |
| 0.12 | DYNC1LI2 |
